Values from PubChem BioAssay AID1259308 (NCATS, 2017).

- Aim: 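Knock-downs that increase output of a recombinant reporter protein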 (primary screen)
- Cell system: human HEK293 embryonic kidney cells stably expressing firefly luciferase (HEK-CMV-Luc2-Hygro)
- Reagent: single siRNA against human genes, 0.8 pmol siRNA per well
- Time to read-out: 72 h
- Read-out: 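Luciferase light (ONE-Glo) measured on one replicate plate set and viability (CellTiter-Glo) on the other, scaled to a negative control siRNA, with robust z-scores and luciferase per cell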
- Scale: total luciferase, z-score and total luciferase, % of control: higher = more reporter protein produced; luciferase per cell, z-score: higher = more reporter output per viable cell
- Rule for the call: 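An siRNA counts as active if its total luciferase robust z-score exceeds 3; genes with two or more such siRNAs out of three were retested with fresh siRNAs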
- Calls: active = raised luciferase; inactive = no rise
Here is an unselected part of about 59,000 reagents tested. Of all reagents, about 1,510 (2.6%) were called active. 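Calls use total luciferase alone and ignore viability, so some active siRNAs may act by altering cell number.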 Entries without a mark were called inactive. Reagents against one gene are numbered here. Not all columns of the deposit are shown. Reagent sequences are not shown.

| gene | reagent no. | total luciferase, z-score | total luciferase, % of control | luciferase per cell, z-score |
| --- | --- | --- | --- | --- |
| ELAVL1 (ELAV like RNA binding protein 1) | 1 | 0.562 | 93.1 | 0.59 |
| ELAVL1 (ELAV like RNA binding protein 1) | 2 | -0.538 | 71.2 | -0.364 |
| ELAVL1 (ELAV like RNA binding protein 1) | 3 | -0.418 | 73.6 | -0.181 |
| RNF181 (ring finger protein 181) | 1 | 0.0666 | 83.2 | -0.121 |
| RNF181 (ring finger protein 181) | 2 | 0.538 | 92.6 | 0.41 |
| RNF181 (ring finger protein 181) | 3 | -1.11 | 59.8 | 0.0531 |
| CCNYL2 (cyclin Y like 2 (pseudogene)) | 1 | -0.594 | 70.1 | 0.852 |
| CCNYL2 (cyclin Y like 2 (pseudogene)) | 2 | 0.223 | 86.3 | 0.863 |
| CCNYL2 (cyclin Y like 2 (pseudogene)) | 3 | 1.51 | 112 | 1.16 |
| NDUFB1 (NADH:ubiquinone oxidoreductase subunit B1) | 1 | -0.493 | 72.1 | 0.153 |
| NDUFB1 (NADH:ubiquinone oxidoreductase subunit B1) | 2 | -0.762 | 66.7 | -1.05 |
| NDUFB1 (NADH:ubiquinone oxidoreductase subunit B1) | 3 | 1.56 | 113 | 1.5 |
| PPT1 (palmitoyl-protein thioesterase 1) | 1 | -1.89 | 44.4 | -1.55 |
| PPT1 (palmitoyl-protein thioesterase 1) | 2 | -1.27 | 56.7 | -1.24 |
| PPT1 (palmitoyl-protein thioesterase 1) | 3 | 1.17 | 105 | 0.456 |
| KRTAP3-3 (keratin associated protein 3-3) | 1 | -0.727 | 67.4 | -1.14 |
| KRTAP3-3 (keratin associated protein 3-3) | 2 | -0.397 | 74 | -0.818 |
| KRTAP3-3 (keratin associated protein 3-3) | 3 | 0.228 | 86.4 | 0.275 |
| ADIRF (adipogenesis regulatory factor) | 1 | -0.0604 | 80.7 | -0.739 |
| ADIRF (adipogenesis regulatory factor) | 2 | -0.338 | 75.2 | -0.941 |
| ADIRF (adipogenesis regulatory factor) | 3 | 0.45 | 90.8 | 0.34 |
| CES2 (carboxylesterase 2) | 1 | 2.44 | 130 | 1.84 |
| CES2 (carboxylesterase 2) | 2 | 0.0412 | 82.7 | 0.291 |
| CES2 (carboxylesterase 2) | 3 | -1.29 | 56.2 | -1.66 |
| IGSF22 (immunoglobulin superfamily member 22) | 1 | 0.343 | 88.7 | 2.36 |
| IGSF22 (immunoglobulin superfamily member 22) | 2 | 0.974 | 101 | 0.546 |
| IGSF22 (immunoglobulin superfamily member 22) | 3 | -0.0764 | 80.4 | -0.343 |
| ZNF735 (zinc finger protein 735) | 1 | -0.0404 | 81.1 | 0.054 |
| ZNF735 (zinc finger protein 735) | 2 | -0.0536 | 80.8 | 1.06 |
| ZNF735 (zinc finger protein 735) | 3 | 1.57 | 113 | 0.9 |
| ZNF735 (zinc finger protein 735) | 4 | -2.58 | 30.7 | -3.56 |
| ZNF735 (zinc finger protein 735) | 5 | 1.65 | 115 | 1.36 |
| ZNF735 (zinc finger protein 735) | 6 | 0.197 | 85.8 | 0.166 |
| SMIM23 (small integral membrane protein 23) | 1 | -0.393 | 74.1 | -0.12 |
| SMIM23 (small integral membrane protein 23) | 2 | 0.805 | 97.9 | 0.767 |
| SMIM23 (small integral membrane protein 23) | 3 | 1.29 | 107 | 0.803 |
| ETNK1 (ethanolamine kinase 1) | 1 | 0.483 | 91.5 | -0.00492 |
| ETNK1 (ethanolamine kinase 1) | 2 | 0.618 | 94.2 | -0.0319 |
| ETNK1 (ethanolamine kinase 1) | 3 | 0.532 | 92.5 | 0.325 |
| TOLLIP (toll interacting protein) | 1 | 0.288 | 87.6 | -0.112 |
| TOLLIP (toll interacting protein) | 2 | 0.364 | 89.1 | -0.34 |
| TOLLIP (toll interacting protein) | 3 | 1.4 | 110 | 0.34 |
| LOC729316 (POM121 membrane glycoprotein pseudogene) | 1 | 2.89 | 139 | 2.81 |
| LOC729316 (POM121 membrane glycoprotein pseudogene) | 2 | 1.84 | 119 | 1.54 |
| LOC729316 (POM121 membrane glycoprotein pseudogene) | 3 | 1.78 | 117 | 0.836 |
| UNC5C (unc-5 netrin receptor C) | 1 | -0.286 | 76.2 | -0.763 |
| UNC5C (unc-5 netrin receptor C) | 2 | 0.0533 | 82.9 | -0.366 |
| UNC5C (unc-5 netrin receptor C) | 3 | -0.0571 | 80.8 | -0.0363 |
| KRTAP4-11 (keratin associated protein 4-11) | 1 | -0.659 | 68.8 | -0.378 |
| KRTAP4-11 (keratin associated protein 4-11) | 2 | 1.66 | 115 | 2.03 |
| KRTAP4-11 (keratin associated protein 4-11) | 3 | -1.43 | 53.4 | -1.98 |
| ABCA5 (ATP binding cassette subfamily A member 5) | 1 | 0.489 | 91.6 | 0.574 |
| ABCA5 (ATP binding cassette subfamily A member 5) | 2 | -1.37 | 54.6 | -2.26 |
| ABCA5 (ATP binding cassette subfamily A member 5) | 3 | -0.804 | 65.9 | 0.375 |
| RNF8 (ring finger protein 8) | 1 | 0.3 | 87.8 | 0.323 |
| RNF8 (ring finger protein 8) | 2 | -0.46 | 72.7 | -0.153 |
| RNF8 (ring finger protein 8) | 3 | -0.606 | 69.8 | -0.509 |

Copied from the list:
UNC5C (unc-5 netrin receptor C) #2, total luciferase, z-score → 0.0533
Under “total luciferase, z-score”, ZNF735 (zinc finger protein 735) #3 reads 1.57
Under “luciferase per cell, z-score”, ZNF735 (zinc finger protein 735) #4 shows -3.56
For “total luciferase, % of control”, ZNF735 (zinc finger protein 735) #5 has 115
Under “total luciferase, % of control”, KRTAP3-3 (keratin associated protein 3-3) #3 reads 86.4
For “total luciferase, % of control”, ABCA5 (ATP binding cassette subfamily A member 5) #3 shows 65.9
